Measurements reported in PubChem BioAssay AID1508597 (Cure First, 2020).
This is a random part of about 2,100 deposited reagents. 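Calls flag viability under 80% in either arm, not effects specific to rucaparib; the reference for percent is not stated.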 A number with no mark means an inactive call. Some reagents were tested in more than one well and are listed for each. Not given: the 100% reference.

Screen: 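Knock-downs altering ovarian cancer cell survival with or without PARP inhibitor rucaparib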 (primary screen)
System: human ovarian carcinoma lines grown from tumours: OCI-P5x (papillary serous) and OCI-C5x (clear cell)
Reagent: siRNA pool against human genes, 1.25 pmol siRNA per well
Timing: 72 h or 96 h, depending on the cell culture
Conditions: rucaparib 20 µM (about IC30) or vehicle, present until read-out
Detection: 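ATP luminescence measured at 72 or 96 h according to the culture, then normalised and expressed as percent viability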
Reading the numbers: viability, normalised: higher = more viable cells remaining
Hit rule: 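Active when normalised viability falls below 80 percent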
Calls: active = viability under 80%; inactive = viability 80% or more

HDGFL1, rucaparib or vehicle Rucaparib, cell line OCI-C5x (clear cell), technical replicate 1 | viability, normalised (%) = 51.4 (active)
HDGFL1, rucaparib or vehicle Rucaparib, cell line OCI-C5x (clear cell), technical replicate 2 | viability, normalised (%) = 39.6 (active)
HDGFL1, rucaparib or vehicle Rucaparib, cell line OCI-C5x (clear cell), technical replicate 3 | viability, normalised (%) = 49.8 (active)
HDGFL1, rucaparib or vehicle Rucaparib, cell line OCI-P5x (serous), technical replicate 1 | viability, normalised (%) = 64.9 (active)
HDGFL1, rucaparib or vehicle Rucaparib, cell line OCI-P5x (serous), technical replicate 2 | viability, normalised (%) = 66.5 (active)
HDGFL1, rucaparib or vehicle Rucaparib, cell line OCI-P5x (serous), technical replicate 3 | viability, normalised (%) = 63.7 (active)
HDGFL1, rucaparib or vehicle Vehicle, cell line OCI-C5x (clear cell), technical replicate 1 | viability, normalised (%) = 59.6 (active)
HDGFL1, rucaparib or vehicle Vehicle, cell line OCI-C5x (clear cell), technical replicate 2 | viability, normalised (%) = 56.6 (active)
HDGFL1, rucaparib or vehicle Vehicle, cell line OCI-C5x (clear cell), technical replicate 3 | viability, normalised (%) = 68.2 (active)
HDGFL1, rucaparib or vehicle Vehicle, cell line OCI-P5x (serous), technical replicate 1 | viability, normalised (%) = 62.2 (active)
HDGFL1, rucaparib or vehicle Vehicle, cell line OCI-P5x (serous), technical replicate 2 | viability, normalised (%) = 59.4 (active)
HDGFL1, rucaparib or vehicle Vehicle, cell line OCI-P5x (serous), technical replicate 3 | viability, normalised (%) = 61 (active)
NUAK1, rucaparib or vehicle Rucaparib, cell line OCI-C5x (clear cell), technical replicate 1 | viability, normalised (%) = 54 (active)
NUAK1, rucaparib or vehicle Rucaparib, cell line OCI-C5x (clear cell), technical replicate 2 | viability, normalised (%) = 34 (active)
NUAK1, rucaparib or vehicle Rucaparib, cell line OCI-C5x (clear cell), technical replicate 3 | viability, normalised (%) = 53 (active)
NUAK1, rucaparib or vehicle Rucaparib, cell line OCI-P5x (serous), technical replicate 1 | viability, normalised (%) = 88
NUAK1, rucaparib or vehicle Rucaparib, cell line OCI-P5x (serous), technical replicate 2 | viability, normalised (%) = 78.5 (active)
NUAK1, rucaparib or vehicle Rucaparib, cell line OCI-P5x (serous), technical replicate 3 | viability, normalised (%) = 64.3 (active)
NUAK1, rucaparib or vehicle Vehicle, cell line OCI-C5x (clear cell), technical replicate 1 | viability, normalised (%) = 63.5 (active)
NUAK1, rucaparib or vehicle Vehicle, cell line OCI-C5x (clear cell), technical replicate 2 | viability, normalised (%) = 60.9 (active)
NUAK1, rucaparib or vehicle Vehicle, cell line OCI-C5x (clear cell), technical replicate 3 | viability, normalised (%) = 55 (active)
NUAK1, rucaparib or vehicle Vehicle, cell line OCI-P5x (serous), technical replicate 1 | viability, normalised (%) = 76.3 (active)
NUAK1, rucaparib or vehicle Vehicle, cell line OCI-P5x (serous), technical replicate 2 | viability, normalised (%) = 75.7 (active)
NUAK1, rucaparib or vehicle Vehicle, cell line OCI-P5x (serous), technical replicate 3 | viability, normalised (%) = 80
PARP1, rucaparib or vehicle Rucaparib, cell line OCI-C5x (clear cell), technical replicate 1 | viability, normalised (%) = 50.4 (active)
PARP1, rucaparib or vehicle Rucaparib, cell line OCI-C5x (clear cell), technical replicate 1 | viability, normalised (%) = 57.3 (active)
PARP1, rucaparib or vehicle Rucaparib, cell line OCI-C5x (clear cell), technical replicate 2 | viability, normalised (%) = 61.4 (active)
PARP1, rucaparib or vehicle Rucaparib, cell line OCI-C5x (clear cell), technical replicate 2 | viability, normalised (%) = 49.6 (active)
PARP1, rucaparib or vehicle Rucaparib, cell line OCI-C5x (clear cell), technical replicate 3 | viability, normalised (%) = 54.6 (active)
PARP1, rucaparib or vehicle Rucaparib, cell line OCI-C5x (clear cell), technical replicate 3 | viability, normalised (%) = 61.1 (active)
PARP1, rucaparib or vehicle Rucaparib, cell line OCI-P5x (serous), technical replicate 1 | viability, normalised (%) = 71.7 (active)
PARP1, rucaparib or vehicle Rucaparib, cell line OCI-P5x (serous), technical replicate 1 | viability, normalised (%) = 52.9 (active)
PARP1, rucaparib or vehicle Rucaparib, cell line OCI-P5x (serous), technical replicate 2 | viability, normalised (%) = 54.3 (active)
PARP1, rucaparib or vehicle Rucaparib, cell line OCI-P5x (serous), technical replicate 2 | viability, normalised (%) = 70.1 (active)
PARP1, rucaparib or vehicle Rucaparib, cell line OCI-P5x (serous), technical replicate 3 | viability, normalised (%) = 59.7 (active)
PARP1, rucaparib or vehicle Rucaparib, cell line OCI-P5x (serous), technical replicate 3 | viability, normalised (%) = 80.3
PARP1, rucaparib or vehicle Vehicle, cell line OCI-C5x (clear cell), technical replicate 1 | viability, normalised (%) = 48 (active)
PARP1, rucaparib or vehicle Vehicle, cell line OCI-C5x (clear cell), technical replicate 1 | viability, normalised (%) = 42.8 (active)
PARP1, rucaparib or vehicle Vehicle, cell line OCI-C5x (clear cell), technical replicate 2 | viability, normalised (%) = 53.2 (active)
PARP1, rucaparib or vehicle Vehicle, cell line OCI-C5x (clear cell), technical replicate 2 | viability, normalised (%) = 41.6 (active)
PARP1, rucaparib or vehicle Vehicle, cell line OCI-C5x (clear cell), technical replicate 3 | viability, normalised (%) = 55.6 (active)
PARP1, rucaparib or vehicle Vehicle, cell line OCI-C5x (clear cell), technical replicate 3 | viability, normalised (%) = 54.9 (active)
PARP1, rucaparib or vehicle Vehicle, cell line OCI-P5x (serous), technical replicate 1 | viability, normalised (%) = 67.8 (active)
PARP1, rucaparib or vehicle Vehicle, cell line OCI-P5x (serous), technical replicate 1 | viability, normalised (%) = 57.7 (active)
PARP1, rucaparib or vehicle Vehicle, cell line OCI-P5x (serous), technical replicate 2 | viability, normalised (%) = 58 (active)
PARP1, rucaparib or vehicle Vehicle, cell line OCI-P5x (serous), technical replicate 2 | viability, normalised (%) = 56.4 (active)
PARP1, rucaparib or vehicle Vehicle, cell line OCI-P5x (serous), technical replicate 3 | viability, normalised (%) = 64.9 (active)
PARP1, rucaparib or vehicle Vehicle, cell line OCI-P5x (serous), technical replicate 3 | viability, normalised (%) = 63.9 (active)

An excerpt taken from the entries so far, as a working copy:
PARP1, rucaparib or vehicle Vehicle, cell line OCI-P5x (serous), technical replicate 2 | viability, normalised (%) = 56.4 (active)
PARP1, rucaparib or vehicle Vehicle, cell line OCI-P5x (serous), technical replicate 3 | viability, normalised (%) = 64.9 (active)
